Results on 36 targets are retold here after the supplement of paper PMC7666118.

The chains behind the UniProt entries cited, without tags or fusion partners. Where a name states a change or a piece, a line headed by the entry shows the natural chain unless it says otherwise.
UniProt Q9BRX2, whole entry: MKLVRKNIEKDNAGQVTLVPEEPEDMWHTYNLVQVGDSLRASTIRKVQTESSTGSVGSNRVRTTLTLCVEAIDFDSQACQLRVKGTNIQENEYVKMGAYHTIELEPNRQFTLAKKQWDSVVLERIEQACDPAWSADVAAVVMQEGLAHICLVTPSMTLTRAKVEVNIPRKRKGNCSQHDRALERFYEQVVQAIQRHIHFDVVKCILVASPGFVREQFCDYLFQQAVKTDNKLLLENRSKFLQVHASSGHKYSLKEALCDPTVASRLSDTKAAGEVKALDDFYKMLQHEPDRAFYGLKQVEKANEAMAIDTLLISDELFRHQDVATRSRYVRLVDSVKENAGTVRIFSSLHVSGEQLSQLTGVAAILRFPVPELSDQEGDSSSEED
UniProt Q96KB5: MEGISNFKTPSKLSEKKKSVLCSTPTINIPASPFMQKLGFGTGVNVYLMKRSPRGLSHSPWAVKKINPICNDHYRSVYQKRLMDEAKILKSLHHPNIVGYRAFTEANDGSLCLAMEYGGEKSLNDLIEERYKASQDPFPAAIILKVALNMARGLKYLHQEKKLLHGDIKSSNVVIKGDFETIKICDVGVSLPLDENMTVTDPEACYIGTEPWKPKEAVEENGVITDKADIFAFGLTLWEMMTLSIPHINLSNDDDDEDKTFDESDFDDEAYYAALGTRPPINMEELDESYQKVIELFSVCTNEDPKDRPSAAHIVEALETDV
UniProt P35080, whole entry: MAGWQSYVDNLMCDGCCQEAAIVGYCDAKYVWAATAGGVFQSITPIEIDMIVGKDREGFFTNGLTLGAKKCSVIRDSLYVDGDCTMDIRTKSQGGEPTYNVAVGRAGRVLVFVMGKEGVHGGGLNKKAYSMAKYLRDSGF
UniProt Q13362, whole entry, looked up: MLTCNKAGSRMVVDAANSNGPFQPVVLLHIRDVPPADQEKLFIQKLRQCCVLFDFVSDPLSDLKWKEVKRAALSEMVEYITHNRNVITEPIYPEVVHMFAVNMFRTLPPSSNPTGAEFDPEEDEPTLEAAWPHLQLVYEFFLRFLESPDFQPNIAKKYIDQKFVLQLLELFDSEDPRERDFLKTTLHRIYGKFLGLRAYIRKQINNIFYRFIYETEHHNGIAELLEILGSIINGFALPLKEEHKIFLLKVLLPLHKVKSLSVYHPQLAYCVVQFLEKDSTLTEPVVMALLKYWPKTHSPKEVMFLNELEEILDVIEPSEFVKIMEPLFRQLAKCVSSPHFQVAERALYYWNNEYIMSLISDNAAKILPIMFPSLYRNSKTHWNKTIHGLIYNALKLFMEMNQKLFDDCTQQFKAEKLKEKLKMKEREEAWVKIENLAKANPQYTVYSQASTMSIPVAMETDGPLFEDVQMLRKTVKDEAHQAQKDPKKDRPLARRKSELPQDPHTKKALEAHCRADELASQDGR
UniProt P28340: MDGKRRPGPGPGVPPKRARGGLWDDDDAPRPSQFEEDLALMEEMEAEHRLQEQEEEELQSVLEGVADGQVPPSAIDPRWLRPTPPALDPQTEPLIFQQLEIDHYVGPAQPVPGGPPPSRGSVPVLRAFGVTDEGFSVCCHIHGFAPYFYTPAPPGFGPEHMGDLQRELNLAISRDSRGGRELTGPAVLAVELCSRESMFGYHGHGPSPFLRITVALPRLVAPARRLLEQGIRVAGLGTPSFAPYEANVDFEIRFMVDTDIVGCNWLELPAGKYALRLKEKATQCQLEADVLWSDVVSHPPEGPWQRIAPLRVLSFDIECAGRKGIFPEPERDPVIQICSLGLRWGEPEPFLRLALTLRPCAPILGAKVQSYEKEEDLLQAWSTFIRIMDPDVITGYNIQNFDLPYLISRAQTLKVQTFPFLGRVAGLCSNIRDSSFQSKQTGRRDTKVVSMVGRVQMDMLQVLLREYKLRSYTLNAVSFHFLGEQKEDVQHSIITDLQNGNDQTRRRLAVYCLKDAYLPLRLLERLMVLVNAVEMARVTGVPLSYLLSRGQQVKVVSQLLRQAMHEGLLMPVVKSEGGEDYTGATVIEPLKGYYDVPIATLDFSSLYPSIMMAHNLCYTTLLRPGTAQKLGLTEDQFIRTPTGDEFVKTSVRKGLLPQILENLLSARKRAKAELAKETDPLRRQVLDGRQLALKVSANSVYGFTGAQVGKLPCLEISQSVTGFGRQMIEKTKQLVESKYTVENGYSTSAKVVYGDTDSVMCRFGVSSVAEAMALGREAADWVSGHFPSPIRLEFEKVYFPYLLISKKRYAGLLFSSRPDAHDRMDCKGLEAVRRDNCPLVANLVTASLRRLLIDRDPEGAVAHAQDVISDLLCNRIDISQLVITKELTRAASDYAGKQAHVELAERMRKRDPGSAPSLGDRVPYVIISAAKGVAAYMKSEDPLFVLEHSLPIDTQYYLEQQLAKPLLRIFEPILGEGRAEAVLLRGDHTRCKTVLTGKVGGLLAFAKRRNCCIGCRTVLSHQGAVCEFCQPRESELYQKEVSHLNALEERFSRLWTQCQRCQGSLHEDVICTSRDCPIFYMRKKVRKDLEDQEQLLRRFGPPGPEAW
UniProt Q15126: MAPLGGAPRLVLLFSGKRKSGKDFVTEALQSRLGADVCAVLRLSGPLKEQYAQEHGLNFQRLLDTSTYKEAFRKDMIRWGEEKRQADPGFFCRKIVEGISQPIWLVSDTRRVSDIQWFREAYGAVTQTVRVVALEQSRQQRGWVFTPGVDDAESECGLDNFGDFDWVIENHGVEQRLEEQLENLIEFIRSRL
UniProt Q8IWE5: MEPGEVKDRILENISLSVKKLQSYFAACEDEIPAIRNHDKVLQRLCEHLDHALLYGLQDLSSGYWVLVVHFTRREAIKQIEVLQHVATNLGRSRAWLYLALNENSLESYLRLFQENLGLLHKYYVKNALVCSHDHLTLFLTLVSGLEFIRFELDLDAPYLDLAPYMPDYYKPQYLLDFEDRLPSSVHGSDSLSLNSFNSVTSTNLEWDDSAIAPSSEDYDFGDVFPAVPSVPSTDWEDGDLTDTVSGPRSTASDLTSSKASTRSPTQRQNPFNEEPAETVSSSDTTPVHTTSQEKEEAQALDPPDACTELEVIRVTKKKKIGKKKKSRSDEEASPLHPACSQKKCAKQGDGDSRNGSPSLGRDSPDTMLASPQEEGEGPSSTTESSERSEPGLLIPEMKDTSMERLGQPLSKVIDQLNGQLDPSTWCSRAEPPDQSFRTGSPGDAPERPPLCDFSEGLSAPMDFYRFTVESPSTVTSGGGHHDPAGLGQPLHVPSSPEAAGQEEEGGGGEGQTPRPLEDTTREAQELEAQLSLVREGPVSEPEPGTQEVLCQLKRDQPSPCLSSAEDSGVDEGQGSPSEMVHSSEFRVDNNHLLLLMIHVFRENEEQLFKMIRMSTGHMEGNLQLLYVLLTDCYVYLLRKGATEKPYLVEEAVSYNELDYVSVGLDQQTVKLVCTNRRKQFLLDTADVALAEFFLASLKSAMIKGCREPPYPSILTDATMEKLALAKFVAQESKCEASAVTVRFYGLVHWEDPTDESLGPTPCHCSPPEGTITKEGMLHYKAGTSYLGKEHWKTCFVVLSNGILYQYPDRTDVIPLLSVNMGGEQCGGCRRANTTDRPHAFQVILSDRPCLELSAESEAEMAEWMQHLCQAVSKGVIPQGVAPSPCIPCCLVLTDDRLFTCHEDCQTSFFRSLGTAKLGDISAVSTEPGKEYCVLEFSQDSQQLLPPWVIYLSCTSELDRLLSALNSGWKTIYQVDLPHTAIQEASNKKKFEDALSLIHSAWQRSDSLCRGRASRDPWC
UniProt Q96HA1, whole entry: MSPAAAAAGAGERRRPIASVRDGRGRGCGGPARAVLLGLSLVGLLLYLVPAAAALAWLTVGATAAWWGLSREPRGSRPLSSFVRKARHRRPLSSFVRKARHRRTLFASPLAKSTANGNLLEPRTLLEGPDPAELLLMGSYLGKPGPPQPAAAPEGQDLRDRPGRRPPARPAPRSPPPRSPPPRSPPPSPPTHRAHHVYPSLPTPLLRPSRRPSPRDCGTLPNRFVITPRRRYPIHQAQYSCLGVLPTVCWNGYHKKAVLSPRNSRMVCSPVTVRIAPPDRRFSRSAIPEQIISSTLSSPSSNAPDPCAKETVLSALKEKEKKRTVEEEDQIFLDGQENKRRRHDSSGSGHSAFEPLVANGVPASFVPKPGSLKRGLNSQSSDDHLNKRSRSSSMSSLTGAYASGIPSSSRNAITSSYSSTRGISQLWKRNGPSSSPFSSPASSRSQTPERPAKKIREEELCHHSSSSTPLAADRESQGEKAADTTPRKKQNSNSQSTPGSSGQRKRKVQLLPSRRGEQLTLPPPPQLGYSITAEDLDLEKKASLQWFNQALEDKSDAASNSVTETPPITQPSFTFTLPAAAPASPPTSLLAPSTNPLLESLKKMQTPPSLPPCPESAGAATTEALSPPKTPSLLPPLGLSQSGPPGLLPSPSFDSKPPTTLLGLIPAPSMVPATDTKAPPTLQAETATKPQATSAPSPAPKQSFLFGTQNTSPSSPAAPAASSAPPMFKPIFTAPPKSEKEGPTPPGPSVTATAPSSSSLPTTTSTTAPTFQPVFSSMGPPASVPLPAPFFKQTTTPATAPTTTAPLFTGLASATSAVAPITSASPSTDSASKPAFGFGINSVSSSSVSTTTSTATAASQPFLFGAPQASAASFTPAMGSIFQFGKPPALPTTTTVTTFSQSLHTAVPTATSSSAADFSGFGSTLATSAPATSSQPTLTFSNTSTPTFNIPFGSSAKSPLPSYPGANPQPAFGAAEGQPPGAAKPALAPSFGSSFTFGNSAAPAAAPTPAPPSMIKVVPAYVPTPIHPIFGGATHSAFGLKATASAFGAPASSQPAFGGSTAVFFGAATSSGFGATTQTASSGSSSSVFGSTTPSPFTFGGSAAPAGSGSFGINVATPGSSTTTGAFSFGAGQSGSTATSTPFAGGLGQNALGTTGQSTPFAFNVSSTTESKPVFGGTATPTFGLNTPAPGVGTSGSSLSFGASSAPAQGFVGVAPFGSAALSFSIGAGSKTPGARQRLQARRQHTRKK
UniProt P42336, whole entry: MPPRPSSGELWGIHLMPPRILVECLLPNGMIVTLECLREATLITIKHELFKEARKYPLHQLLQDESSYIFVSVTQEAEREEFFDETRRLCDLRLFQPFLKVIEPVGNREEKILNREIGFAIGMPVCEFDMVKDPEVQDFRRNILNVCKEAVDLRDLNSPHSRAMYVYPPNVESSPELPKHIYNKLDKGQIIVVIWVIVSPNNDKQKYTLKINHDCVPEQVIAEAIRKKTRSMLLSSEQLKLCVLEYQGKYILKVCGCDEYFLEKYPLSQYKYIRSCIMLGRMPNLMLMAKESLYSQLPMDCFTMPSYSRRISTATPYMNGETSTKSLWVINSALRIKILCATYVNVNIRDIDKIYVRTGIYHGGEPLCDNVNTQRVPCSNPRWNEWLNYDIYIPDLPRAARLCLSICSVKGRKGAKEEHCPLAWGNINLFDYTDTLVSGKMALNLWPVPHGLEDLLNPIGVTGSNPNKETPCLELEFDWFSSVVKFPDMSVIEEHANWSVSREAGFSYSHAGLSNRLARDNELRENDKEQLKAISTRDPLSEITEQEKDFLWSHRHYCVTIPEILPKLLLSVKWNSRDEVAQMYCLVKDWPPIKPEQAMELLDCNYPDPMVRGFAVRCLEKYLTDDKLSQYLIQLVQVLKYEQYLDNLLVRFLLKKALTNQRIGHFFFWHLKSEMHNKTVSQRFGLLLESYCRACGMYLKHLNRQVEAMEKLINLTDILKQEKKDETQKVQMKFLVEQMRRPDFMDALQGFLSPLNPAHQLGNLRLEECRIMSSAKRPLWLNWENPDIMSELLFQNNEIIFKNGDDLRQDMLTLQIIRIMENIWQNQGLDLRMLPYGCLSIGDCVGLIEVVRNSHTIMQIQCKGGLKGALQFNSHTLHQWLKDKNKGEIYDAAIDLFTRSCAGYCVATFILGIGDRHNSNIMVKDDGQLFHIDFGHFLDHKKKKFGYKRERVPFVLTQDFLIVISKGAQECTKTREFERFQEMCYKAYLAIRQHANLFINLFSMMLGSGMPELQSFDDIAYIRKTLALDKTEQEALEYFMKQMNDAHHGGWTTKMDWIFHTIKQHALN
UniProt O00743: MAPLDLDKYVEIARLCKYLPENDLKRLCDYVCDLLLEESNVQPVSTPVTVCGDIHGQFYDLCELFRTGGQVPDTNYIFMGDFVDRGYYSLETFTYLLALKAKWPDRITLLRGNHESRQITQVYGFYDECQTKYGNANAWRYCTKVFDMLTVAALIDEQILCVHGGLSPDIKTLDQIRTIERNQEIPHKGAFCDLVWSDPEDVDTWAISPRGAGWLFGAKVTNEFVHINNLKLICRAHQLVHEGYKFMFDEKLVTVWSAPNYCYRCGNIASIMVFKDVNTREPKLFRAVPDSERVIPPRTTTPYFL
UniProt O15212, whole entry: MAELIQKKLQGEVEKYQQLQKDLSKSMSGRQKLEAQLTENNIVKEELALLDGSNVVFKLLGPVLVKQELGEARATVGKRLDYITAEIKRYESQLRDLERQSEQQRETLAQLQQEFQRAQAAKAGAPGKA
UniProt P61457: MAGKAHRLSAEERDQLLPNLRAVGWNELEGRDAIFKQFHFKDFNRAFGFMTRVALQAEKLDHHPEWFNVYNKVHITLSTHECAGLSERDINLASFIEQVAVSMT

This is one part of the list.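 Rule for the calls: active = dose-dependent thermal stabilisation significant by F-test of dose-response against flat model at 10% FDR; inactive = not significant.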

Compound in the experiment: Nc1nc2c(ncn2[C@@H]2O[C@H](COP(=O)(O)OP(=O)(O)OP(=O)(O)O)[C@@H](O)[C@H]2O)c(=O)[nH]1
As to the kind of experiment: dose-dependent thermal stabilisation call (2D-TPP, DLPTP, 10% FDR) (binary (1 = stabilised)); higher = stabilised by the compound. Particulars: system: Jurkat gel-filtered lysate; concentration range 1-500 µM.
As to PELO (UniProt Q9BRX2), the “dose-dependent thermal stabilisation call” value is active: 1.

On to PHLDB3 (UniProt Q6NSJ2), for which the “dose-dependent thermal stabilisation call” value is inactive: 0.

In the case of PBK (UniProt Q96KB5), the “dose-dependent thermal stabilisation call” value was inactive: 0.

Regarding PNISR (UniProt Q8TF01), the “dose-dependent thermal stabilisation call” value was inactive: 0.

PDPK1 (UniProt O15530): the “dose-dependent thermal stabilisation call” value was active: 1.

Regarding PDIA3 (UniProt P30101), the “dose-dependent thermal stabilisation call” value is inactive: 0.

For the target PLS1 (UniProt Q14651), the “dose-dependent thermal stabilisation call” value is inactive: 0.

Take PFN2 (UniProt P35080): the “dose-dependent thermal stabilisation call” value is active: 1.

In the case of PPP2R5C (UniProt Q13362), the “dose-dependent thermal stabilisation call” value is inactive: 0.

Turning to POLD1 (UniProt P28340), the “dose-dependent thermal stabilisation call” value was inactive: 0.

Turning to PHKA2 (UniProt P46019), the “dose-dependent thermal stabilisation call” value is inactive: 0.

For the target POLE2 (UniProt P56282), the “dose-dependent thermal stabilisation call” value is inactive: 0.

In the case of PPP1R21 (UniProt Q6ZMI0), the “dose-dependent thermal stabilisation call” value is inactive: 0.

Consider PHRF1 (UniProt Q9P1Y6), for which the “dose-dependent thermal stabilisation call” value was inactive: 0.

For the target PPHLN1 (UniProt Q8NEY8), the “dose-dependent thermal stabilisation call” value is inactive: 0.

With PMVK (UniProt Q15126), the “dose-dependent thermal stabilisation call” value was active: 1.

Regarding PLEKHM2 (UniProt Q8IWE5), the “dose-dependent thermal stabilisation call” value was inactive: 0.

For POM121 (UniProt Q96HA1), the “dose-dependent thermal stabilisation call” value was inactive: 0.

In the case of PELP1 (UniProt Q8IZL8), the “dose-dependent thermal stabilisation call” value was inactive: 0.

Regarding PPT1 (UniProt P50897), the “dose-dependent thermal stabilisation call” value was active: 1.

As to PIK3CA (UniProt P42336), the “dose-dependent thermal stabilisation call” value was inactive: 0.

On to PPP6C (UniProt O00743), for which the “dose-dependent thermal stabilisation call” value was inactive: 0.

On to PFDN6 (UniProt O15212), for which the “dose-dependent thermal stabilisation call” value was inactive: 0.

For the target POLE (UniProt Q07864), the “dose-dependent thermal stabilisation call” value was inactive: 0.

For the target PLEKHF2 (UniProt Q9H8W4), the “dose-dependent thermal stabilisation call” value is active: 1.

Turning to PICALM (UniProt Q13492), the “dose-dependent thermal stabilisation call” value was inactive: 0.

As for POLR3B (UniProt Q9NW08), the “dose-dependent thermal stabilisation call” value was inactive: 0.

For the target PCBD1 (UniProt P61457), the “dose-dependent thermal stabilisation call” value was inactive: 0.

As for PPP3CB (UniProt P16298), the “dose-dependent thermal stabilisation call” value is inactive: 0.

Take PRDX4 (UniProt Q13162): the “dose-dependent thermal stabilisation call” value is inactive: 0.

Regarding PPP1R7 (UniProt Q15435), the “dose-dependent thermal stabilisation call” value is inactive: 0.

As to PLBD2 (UniProt Q8NHP8), the “dose-dependent thermal stabilisation call” value is inactive: 0.

Turning to PPP6R2 (UniProt O75170), the “dose-dependent thermal stabilisation call” value is inactive: 0.

Consider POLE3 (UniProt Q9NRF9), for which the “dose-dependent thermal stabilisation call” value was inactive: 0.

Turning to PPAT (UniProt Q06203), the “dose-dependent thermal stabilisation call” value is inactive: 0.

For the target PPP2CA (UniProt P67775), the “dose-dependent thermal stabilisation call” value is inactive: 0.
